# Results taken from PubChem BioAssay AID2685 (National Center for Advancing Translational Sciences (NCATS), 2010).
# The other results are listed elsewhere or left out. The main result of the screen is listed elsewhere. These columns were measured beside it and carry no call. Most of these compounds were active or inconclusive in the main read-out, so they are no random draw. The note in brackets gives the kind of curve behind each potency; many fits are weak.
# Experiment: qHTS Assay for Lipid Storage Modulators in Drosophila S3 Cells;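 for cell number change: cells counted by Cell Tracker Red CMTPX staining in the red channel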
# Conditions: BODIPY lipid droplet fluorescence, 18-24 h; for cell number change: measured here: cell count max response, cells fed with added oleic acid
# Procedure, shortened: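 Laser-scanning cytometry quantifies lipid droplet accumulation (500–530 nm total intensity; droplet/cell object ratio) in oleic acid-fed (400 uM added) Drosophila S3 cells treated with a concentration series. 20 uM Triacsin C defined 100% inhibition.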
# [1] = measured here: cell number channel AC50, cells fed with added oleic acid
# [2] = measured here: lipid fluorescence (Fed channel) AC50, cells fed with added oleic acid
SMILES,cell number change,AC50 [1],AC50 [2]
OCCN(Cc1ccccc1)Cc1ccc(C(F)(F)F)cc1,-49.2%,"20.6 µM [falling, single point]","23.1 µM [falling, single point]"
Cc1cccc(C(=O)Nc2cc(S(=O)(=O)N3CCOCC3)ccc2N2CCCCC2)c1,18.9%,,"0.92 µM [rising, full curve, poor fit]"
Cc1cccc(N2CCN(S(=O)(=O)c3ccc4c(c3)OCCO4)CC2)c1C,15.5%,,"29.1 µM [rising, single point]"
CCOc1cc(C(=O)N/N=C/C(Br)=C/c2ccccc2)cc(OCC)c1OCC,10.6%,,"1.03 µM [rising, partial curve]"
O=C(Nc1ccc(S(=O)(=O)Nc2ncccn2)cc1)C1COc2ccccc2O1 (centres undefined),-3.85%,"0.00517 µM [falling, full curve, poor fit]",
Cc1c(NC(=O)CSc2nc3ccccc3n2C)c(=O)n(-c2ccccc2)n1C,10.3%,,"29.1 µM [falling, single point]"
CN1CCN(C(=O)C2CCC(CNS(=O)(=O)c3cccc4cccnc34)CC2)CC1 (centres undefined),-12.7%,"2.06 µM [falling, single point]","0.259 µM [falling, full curve, poor fit]"
O=C(CSc1nc2cc3c(cc2c(=O)n1CCC1=CCCCC1)OCO3)NCc1ccco1,-2.39%,,"1.46 µM [falling, partial curve, poor fit]"
OC(CN1CCN(C(c2ccccc2)c2ccccc2)CC1)c1ccccc1 (centres undefined),-52.2%,"18.4 µM [falling, single point]","23.1 µM [falling, single point]"
CCNC(=O)N1C(CC(=O)OCC)C(=O)NC2CCCCC21 (centres undefined),-140%,"25.9 µM [falling, partial curve]","1.46 µM [falling, partial curve]"
COC(=O)c1ccc(NC(=O)C(=O)N2CCN(C(=S)Nc3ccccc3OC)CC2)cc1,,,"20.6 µM [rising, single point]"
N#CCCN(C(=O)COC(=O)c1ccc(S(=O)(=O)N2CCCC2)cc1)c1cccc(Cl)c1,-22.3%,"0.517 µM [falling, full curve]",
CC1CC1C(=O)Nc1nc(-c2cccs2)c(-c2cccs2)s1 (centres undefined),,,"14.6 µM [rising, partial curve]"
CC(C)C(C(=O)NCc1ccco1)N(Cc1ccco1)C(=O)CNS(=O)(=O)c1ccc(F)cc1 (centres undefined),-16.2%,,
CCC1Oc2ccc(C)cc2N(CC(=O)N(Cc2cccnc2)Cc2ccc(C)o2)C1=O (centres undefined),,,"0.651 µM [rising, single point]"
CCN(CC)c1ccc(NC(=O)CN2CCN(c3nc(C)cc(C)n3)CC2)cc1,-11.7%,,

# Structural class: those above containing fluorine
SMILES,cell number change,AC50 [1],AC50 [2]
OCCN(Cc1ccccc1)Cc1ccc(C(F)(F)F)cc1,-49.2%,"20.6 µM [falling, single point]","23.1 µM [falling, single point]"
CC(C)C(C(=O)NCc1ccco1)N(Cc1ccco1)C(=O)CNS(=O)(=O)c1ccc(F)cc1 (centres undefined),-16.2%,,

# Additional results

SMILES,cell number change,AC50 [1],AC50 [2]
CN(C)S(=O)(=O)c1ccc(NC(=O)c2ccccn2)cc1,,,"2.91 µM [rising, partial curve, poor fit]"
CCCCNC(=O)CS(=O)Cc1nc(-c2ccc(C)cc2)oc1C (centres undefined),39.2%,"20.6 µM [rising, partial curve]",
COc1ccc(-c2csc(NC(=O)CSCC(=O)Nc3cc(C)on3)n2)c(OC)c1,10.9%,,"0.259 µM [rising, partial curve, poor fit]"
CCOC(=O)c1cccc(NC(=O)/C=C/c2ccc([N+](=O)[O-])cc2)c1,34.4%,"5.8 µM [rising, partial curve]",
O=C(CCN1CCOCC1)c1ccccc1,1.27%,,"5.8 µM [falling, single point]"
CN1C2C=C(N(CCc3c[nH]c4ccccc34)C(=O)c3ccc(Cl)cc3)CC1CC2 (centres undefined),4.02%,,
CCN1CNC(=S)N(c2cccc(C)c2C)C1,1.92%,,
O=C(NCCN1CCOCC1)C1CCC(CNS(=O)(=O)c2ccc(Cl)cc2)CC1 (centres undefined),-21.1%,"0.0517 µM [falling, full curve, poor fit]",
CCC(=O)Nc1cc2[nH]c(=O)cc(C)c2cc1C,-12.6%,"0.291 µM [falling, partial curve, poor fit]","0.461 µM [falling, full curve]"
COc1ccc(C)cc1NC(=O)C(OC(=O)c1cnc(C)cn1)c1ccccc1 (centres undefined),21.8%,,"1.84 µM [rising, partial curve]"
Cc1sc(NC(=O)c2ccco2)c(CN2CCN(c3ccccn3)CC2)c1C,-0.972%,,"0.731 µM [falling, full curve, poor fit]"
Cc1ccc(C(=O)NC2CCS(=O)(=O)C2)cc1S(=O)(=O)N1CCCCCC1 (centres undefined),-31.7%,"25.9 µM [falling, single point]",
CCN(CCCNC(=O)CCCN1C(=O)COc2ccc(C)cc21)c1cccc(C)c1,-15.1%,,"8.2 µM [rising, partial curve, poor fit]"
CCOc1ccc(CNC(=O)CN2C(=O)CSc3ccc(S(=O)(=O)N4CCOCC4)cc32)cc1OC,-40.4%,"10.3 µM [falling, partial curve]",
CC(=O)Nc1ccc(NC(=O)C(C)OC(=O)CN(C)S(=O)(=O)c2ccc(Cl)cc2)cc1 (centres undefined),,"1.84 µM [rising, partial curve, poor fit]","0.259 µM [rising, full curve, poor fit]"
